Measurements published in publication PMC12646314, “Structure and encapsulation of carbonic anhydrase within the α-carboxysome” (Proceedings of the National Academy of Sciences of the …, 2025).
Results are given in words; binding and its absence hold for the method and conditions named. For some of these results: Binding can be weak; no strength is given.

What was measured:
[1] = biological target: T1, CsoS1A (the major shell hexamer) (Halothiobacillus neapolitanus) (UniProt P45689); assay: cryo-EM structure; single-particle cryo-EM of purified T = 4 minishell/CsoSCA^ΔC (2.36 Å symmetry relaxed) and minishell/CsoSCA-C (3.05 Å); internal density seen at low contour, disordered
T1 sequence: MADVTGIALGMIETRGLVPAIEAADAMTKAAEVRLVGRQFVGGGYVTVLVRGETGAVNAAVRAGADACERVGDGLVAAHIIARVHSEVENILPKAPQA

[2] = biological target: T2, CsoS4A (shell pentamer) (Halothiobacillus neapolitanus) (UniProt O85043); assay: as above
T2 sequence: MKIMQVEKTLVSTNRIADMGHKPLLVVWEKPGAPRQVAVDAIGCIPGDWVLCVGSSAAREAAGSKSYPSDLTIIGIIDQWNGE

binding [1]	binding [2]	Substance
binds	no binding	CsoSCA-C with a C-terminal His6 tag (C-terminal domain of CsoSCA) (Halothiobacillus neapolitanus) (domain or fragment)
binds	no binding	CsoSCA^ΔC with a C-terminal His6 tag (CTD deletion of CsoSCA) (Halothiobacillus neapolitanus) (domain or fragment)
